Common to all, as to assay: log2 fold change, soluble protein after heating vs DMSO (PISA); higher = thermal stabilisation; K562 cells, 10 uM, 30 min; active = over 0.2 and 3.5 SD of the protein, either way, in both replicates (recomputed)
Compound in one assay: CN1CCc2c(c3ccccc3n2Cc2ccc(C(=O)NO)cc2)C1 [Tubastatin A]
In short, it runs like this:
(§1)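 Values are thermal stability changes relative to control samples and are taken from duplicates. They are stated as log2 fold changes. Before quantification by TMTpro 16plex LC-MS/MS with equalised channel sums, K562 cells at 2×10^6 cells/mL were treated with 10 μM compound for 30 min, heated in aliquots for 3 min across 48°C-58°C, pooled, extracted in PBS with 0.5% NP-40 at 4°C, and centrifuged at 21,000xg for 90 min to give the soluble supernatant.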

Amino acid sequences for entries named in this document (tags omitted). A change or cut given only in a name is not applied to a line headed by its entry.
UniProt Q6ZN04: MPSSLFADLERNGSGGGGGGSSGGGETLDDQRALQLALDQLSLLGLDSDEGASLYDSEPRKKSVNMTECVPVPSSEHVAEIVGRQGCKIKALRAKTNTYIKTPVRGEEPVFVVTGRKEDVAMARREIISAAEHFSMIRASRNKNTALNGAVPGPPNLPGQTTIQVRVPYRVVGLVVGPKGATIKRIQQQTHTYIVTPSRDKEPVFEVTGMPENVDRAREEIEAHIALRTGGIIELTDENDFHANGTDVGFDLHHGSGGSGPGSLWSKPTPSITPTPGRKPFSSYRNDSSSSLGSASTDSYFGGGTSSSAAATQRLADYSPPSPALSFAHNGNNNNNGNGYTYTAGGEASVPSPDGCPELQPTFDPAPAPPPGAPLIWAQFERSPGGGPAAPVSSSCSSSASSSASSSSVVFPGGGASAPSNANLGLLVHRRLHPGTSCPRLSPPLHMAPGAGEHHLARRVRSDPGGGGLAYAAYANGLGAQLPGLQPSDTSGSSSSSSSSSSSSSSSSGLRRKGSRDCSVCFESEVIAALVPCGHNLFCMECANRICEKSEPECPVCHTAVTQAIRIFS
UniProt Q9NX70: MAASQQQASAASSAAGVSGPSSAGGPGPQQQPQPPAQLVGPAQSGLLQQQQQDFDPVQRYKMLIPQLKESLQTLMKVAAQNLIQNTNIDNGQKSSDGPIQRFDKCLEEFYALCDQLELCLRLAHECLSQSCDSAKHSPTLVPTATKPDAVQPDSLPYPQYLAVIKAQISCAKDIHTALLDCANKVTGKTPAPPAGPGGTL
UniProt Q9Y4C4: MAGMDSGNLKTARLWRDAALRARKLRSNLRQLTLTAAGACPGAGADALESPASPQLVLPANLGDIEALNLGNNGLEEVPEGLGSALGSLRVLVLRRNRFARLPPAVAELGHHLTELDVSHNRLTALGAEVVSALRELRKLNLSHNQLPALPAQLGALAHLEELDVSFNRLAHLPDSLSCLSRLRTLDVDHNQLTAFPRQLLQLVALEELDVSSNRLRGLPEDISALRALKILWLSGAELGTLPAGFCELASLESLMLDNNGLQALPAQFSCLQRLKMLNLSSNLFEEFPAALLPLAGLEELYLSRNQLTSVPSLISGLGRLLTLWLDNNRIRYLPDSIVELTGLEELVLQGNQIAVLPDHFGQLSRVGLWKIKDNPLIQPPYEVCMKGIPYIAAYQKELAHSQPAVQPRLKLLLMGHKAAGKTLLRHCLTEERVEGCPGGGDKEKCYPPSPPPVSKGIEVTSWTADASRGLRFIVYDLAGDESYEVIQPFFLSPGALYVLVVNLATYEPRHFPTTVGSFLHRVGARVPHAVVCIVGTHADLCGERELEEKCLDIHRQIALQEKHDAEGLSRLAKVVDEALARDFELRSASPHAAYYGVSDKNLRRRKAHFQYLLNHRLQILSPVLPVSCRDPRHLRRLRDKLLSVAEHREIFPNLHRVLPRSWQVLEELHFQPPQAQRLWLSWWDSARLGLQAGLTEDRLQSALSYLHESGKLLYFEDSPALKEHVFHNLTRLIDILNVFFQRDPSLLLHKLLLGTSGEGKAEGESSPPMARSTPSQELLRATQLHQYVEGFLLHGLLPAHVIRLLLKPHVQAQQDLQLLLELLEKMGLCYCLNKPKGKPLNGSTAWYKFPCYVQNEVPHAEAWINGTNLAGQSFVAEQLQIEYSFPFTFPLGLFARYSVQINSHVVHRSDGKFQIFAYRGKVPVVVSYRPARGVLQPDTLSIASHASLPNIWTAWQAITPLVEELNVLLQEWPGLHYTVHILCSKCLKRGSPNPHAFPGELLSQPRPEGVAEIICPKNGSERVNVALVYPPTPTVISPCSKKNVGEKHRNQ

Compound in assay [1]: CNC(=O)C1=CC=CC=C1NC2=NC(=NC=C2Cl)NC3=C(C=C(C=C3)N4CCOCC4)OC
In short, it runs like this:
as §1

Compound in assay [2]: COc1cc2nc(-c3cc(F)ccc3O)nc(N[C@@H]3CNC[C@H]3C(C)(C)O)c2cc1OC
The method, boiled down:
as §1

Compound in a further assay: COc1cc2ncnc(Nc3ccc(F)c(Cl)c3)c2cc1OCCCN1CCOCC1 [gefitinib]
In short, it runs like this:
as §1

Compound in another assay: CS(=O)(=O)CCNCc1ccc(-c2ccc3ncnc(Nc4ccc(OCc5cccc(F)c5)c(Cl)c4)c3c2)o1 [lapatinib]
The method, boiled down: as §1

Compound in a further assay: CN1CCN(CCOc2cc(OC3CCOCC3)c3c(Nc4c(Cl)ccc5c4OCO5)ncnc3c2)CC1 [saracatinib]
The method, boiled down: as §1

Compound in assay [3]: CNc1nc(-c2ccc3c(N)n[nH]c3c2)cc(N2C[C@@H](C(=O)NC3CCCCC3)CC[C@H]2C)n1
The method, boiled down:
as §1

Compound in the next assay: COc1cc(C(=O)O)ccc1NC(=O)[C@@H]1N[C@@H](CC(C)(C)C)[C@](C#N)(c2ccc(Cl)cc2F)[C@H]1c1cccc(Cl)c1F [idasanutlin]
In short, it runs like this:
as §1

Compound in a further assay: COc1cc(Nc2ncc3c(n2)-c2ccc(Cl)cc2C(c2c(F)cccc2OC)=NC3)ccc1C(=O)O [alisertib]
In short, it runs like this:
as §1

Compound in assay [4]: COc1cccc2cc(-c3nc([C@H]4CC[C@H](C(=O)O)CC4)n4ncnc(N)c34)[nH]c12
The method, boiled down:
as §1

Compound in another assay: CN1CC[C@H](c2c(O)cc(O)c3c(=O)cc(-c4ccccc4Cl)oc23)[C@H](O)C1 [alvocidib]
In short, it runs like this: as §1

Compound in a further assay: CNC(=O)c1ccc(Nc2ncc(C(F)(F)F)c(NCc3nccnc3N(C)S(C)(=O)=O)n2)cc1 [defactinib]
In short, it runs like this:
as §1

Compound in assay [5]: COC(=O)[C@H](CCSC)NC(=O)C1=C(C=C(C=C1)NC[C@H](CS)N)C2=CC=CC=C2
In short, it runs like this: as §1

Compound in assay [6]: COC1=CC=C(C=C1)CN2C=CC3=C2C=C(C=C3)C(=O)NO
In short, it runs like this:
as §1

Compound in another assay: CO[C@H]1C[C@@H]2CC[C@@H](C)[C@@](O)(O2)C(=O)C(=O)N2CCCC[C@H]2C(=O)O[C@H]([C@H](C)C[C@@H]2CC[C@H](n3cnnn3)[C@H](OC)C2)CC(=O)[C@H](C)/C=C(\C)[C@@H](O)[C@@H](OC)C(=O)[C@H](C)C[C@H](C)/C=C/C=C/C=C/1C [zotarolimus]
The method, boiled down:
as §1

Compound in the next assay: CS(=O)(=O)N1CCN(Cc2cc3nc(-c4cccc5[nH]ncc45)nc(N4CCOCC4)c3s2)CC1 [pictilisib]
The method, boiled down:
as §1

The other results are listed elsewhere or left out.

Take MEX3B (UniProt Q6ZN04): the log2 fold change with Tubastatin A is inactive: -0.183; in assay [1], inactive: -0.099; in assay [2] it was inactive: -0.052; in the assay with gefitinib, inactive: 0.13; with lapatinib, inactive: -0.183.

As to MED29 (UniProt Q9NX70), the log2 fold change in the assay with saracatinib is inactive: -0.033; in [1] it was inactive: 0.004; in assay [3], inactive: 0.001; in the assay with idasanutlin it was inactive: 0.1; in the assay with alisertib it was inactive: -0.571; in assay [2], active: -0.77. In addition, the log2 fold change was inactive: 0.058 with gefitinib, inactive: 0.115 in assay [4] and inactive: -0.028 with lapatinib.

With MFHAS1 (UniProt Q9Y4C4), the log2 fold change was inactive: -0.012 with saracatinib; inactive: -0.014 with alvocidib; inactive: -0.04 in the assay with Tubastatin A; inactive: -0.012 with defactinib; inactive: 0.115 in [3]; inactive: -0.268 in [5]. Besides, the log2 fold change is inactive: 0.323 in [6]; inactive: -0.017 with zotarolimus; inactive: -0.115 with idasanutlin; inactive: -0.051 in the assay with alisertib; inactive: 0.023 in assay [4]; inactive: 0.115 in the assay with pictilisib.

Values taken from the supplement of paper PMC10849652.
